Measurements taken from EP4831167A1, “AROMATIC HETEROCYCLIC COMPOUND, AND PREPARATION METHOD THEREFOR AND USE THEREOF” (dated 2026).

Protein sequences, listed by entry. Tags and fused reporters are not part of them. Residues count along the entry.
UniProt P19099, 25-503 limits assumed: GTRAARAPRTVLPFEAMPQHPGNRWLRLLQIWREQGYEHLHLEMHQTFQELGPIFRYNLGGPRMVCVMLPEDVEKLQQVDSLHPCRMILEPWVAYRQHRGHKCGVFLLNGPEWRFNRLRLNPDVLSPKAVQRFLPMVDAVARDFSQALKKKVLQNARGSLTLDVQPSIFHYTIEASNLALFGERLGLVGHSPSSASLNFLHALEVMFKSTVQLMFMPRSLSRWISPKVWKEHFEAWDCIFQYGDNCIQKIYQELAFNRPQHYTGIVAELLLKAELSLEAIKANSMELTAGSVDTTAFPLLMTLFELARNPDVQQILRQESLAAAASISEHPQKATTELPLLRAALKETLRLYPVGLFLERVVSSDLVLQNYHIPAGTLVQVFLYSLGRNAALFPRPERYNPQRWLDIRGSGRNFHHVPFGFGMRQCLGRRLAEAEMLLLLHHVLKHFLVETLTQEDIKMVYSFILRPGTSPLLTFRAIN
UniProt P15538, 25-503 limits assumed: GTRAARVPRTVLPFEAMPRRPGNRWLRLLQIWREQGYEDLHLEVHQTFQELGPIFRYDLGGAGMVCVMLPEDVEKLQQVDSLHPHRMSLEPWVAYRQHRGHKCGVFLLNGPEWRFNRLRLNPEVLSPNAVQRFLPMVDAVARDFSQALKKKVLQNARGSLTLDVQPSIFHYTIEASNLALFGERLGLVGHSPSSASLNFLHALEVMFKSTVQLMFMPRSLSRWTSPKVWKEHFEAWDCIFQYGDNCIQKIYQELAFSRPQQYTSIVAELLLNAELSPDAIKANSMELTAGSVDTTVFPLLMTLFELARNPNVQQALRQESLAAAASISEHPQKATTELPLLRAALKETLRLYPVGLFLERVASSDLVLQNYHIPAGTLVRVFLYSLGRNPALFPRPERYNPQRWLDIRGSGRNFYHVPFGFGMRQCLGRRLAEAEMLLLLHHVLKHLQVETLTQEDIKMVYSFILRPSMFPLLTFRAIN

Legend:
[1] = target: human aldosterone synthase (CYP11B2) (Homo sapiens, UniProt P19099); test: Assay of human aldosterone synthase (CYP11B2) inhibition; settings: G402 cell line stably overexpressing human CYP11B2; substrate 11-deoxycorticosterone (11-DOC); 24 h incubation; aldosterone in supernatant by HTRF
From the text: Experimental reagents and instruments: Aldosterone kit (Cisbio, Cat#64ALDPEG); Envision plate reader (PerkinElmer).
Experimental principle and method: In humans, aldosterone synthase (CYP11B2) catalyses the conversion of 11-deoxycorticosterone (11-DOC) to aldosterone through a series of metabolic processes. In this experiment, a G402 cell line stably overexpressing-Human CYP11B2 was established in vitro (according to Valentin-Goyco J, et al. Selectivity of osilodrostat as an inhibitor of human steroidogenic cytochromes P450. J Steroid Biochem Mol Biol. 2023, 231:106316). The cells were incubated with 11-deoxycorticosterone (11-DOC) as the substrate, the test compound was added simultaneously. After co-incubation, the supernatant was collected, and aldosterone levels in the supernatant were then measured by HTRF assay. The inhibitory effect of the compound on aldosterone synthase (CYP11B2) was calculated based on aldosterone concentration.
(§1) Experimental steps: 11-Deoxycorticosterone (11-DOC) was added to the wells of a plate pre-seeded with the cells (10,000 cells/well) 24h prior to assay initiation. Then, the compound diluted to different concentrations was added to the corresponding wells and mixed thoroughly. Control wells were set up simultaneously. The final concentration of DMSO was 0.1%. The plate was placed in a 37°C/5% CO2 humidified incubator and incubated for 24 h. Post-incubation, 10 µL supernatant was added to a 384-well plate. 5 µL of Acceptor working solution and 5 µL of Donor Antibody were added to each well, followed by centrifugation at 1000 rpm for 1 minute. The plate was incubated at room temperature for 60-120 minutes. Finally, the fluorescence signal ratio at 665 nm/615 nm was measured using an Envision plate reader (PerkinElmer).
(§2) Experimental data processing method: Test data were processed and analysed using GraphPad Prism 5 software. First, the mean reaction signal values of the high-signal control wells and low-signal control wells were calculated separately. Then, the reaction inhibition rate for each compound well was calculated according to the following formula: Inhibition rate (%) = 100 - (Mean of high-signal control group - Signal value of individual well) / (Mean of high-signal control group - Mean of low-signal control group). Subsequently, the concentration and corresponding inhibition rate data were imported into Prism 5 software. The inhibition rate-concentration curve was fitted using the "log(inhibitor) vs. response - Variable slope" method in the software, and the IC50 value of the compound was calculated.

[2] = target: 11β-hydroxylase (CYP11B1) (Homo sapiens, UniProt P15538); test: Assay of human CYP11B1 inhibition (selectivity CYP11B2/CYP11B1); settings: G402-derived stable cell lines overexpressing human CYP11B1 / CYP11B2; CYP11B1: substrate 11-deoxycortisol, cortisol by HTRF
Procedure: Experimental reagents and instruments: Cortisol kit (Cisbio, Cat#62ALDPEG); Envision plate reader (PerkinElmer)
Experimental principle and method: In humans, 11β-hydroxylase (CYP11B1) is the key enzyme responsible for the biosynthesis of cortisol. In this experiment, a G402-derived stable cell line overexpressing human CYP11B1 was established in vitro. The cells were incubated with using 11-deoxycortisol as the substrate, and the test compound was added simultaneously. After co-incubation, the supernatant was collected, and cortisol levels in the supernatant were then measured by HTRF assay, and the inhibitory effect of the compound on 11β-hydroxylase (CYP11B1) was calculated.
as §1, with “11-Deoxycortisol” for “11-Deoxycorticosterone (11-DOC)”
as §2

SMILES | IC50 [1] | Ratio of CYP11B1 IC50 to CYP11B2 IC50 [2]
CN1C(=O)CCc2cc(-c3cncc(N4CCN(CC(=O)NC(C)(C)C)CC4)n3)ccc21 | 3 to 10 nM | –
CN1C(=O)CCc2cc(-c3cncc(N4CCN(CC(=O)NC5CCC6(CC5)CC6)CC4)c3)ccc21 | < 3 nM | B (500 ≥ B > 200)
CN1C(=O)CCc2cc(-c3cncc(N4CCN(CC(=O)N[C@@H]5C[C@@H]5F)CC4)c3)ccc21 | 10 to 20 nM | –
CN1C(=O)CCc2cc(-c3cncc(N4CCN(CC(=O)NC56CC(C(F)(F)F)(C5)C6)CC4)c3)ccc21 | < 3 nM | C (200 ≥ C > 100)
CN1C(=O)CCc2cc(-c3cncc(N4CCN(CC(=O)NC5CC(F)(F)C5)CC4)c3)ccc21 | < 3 nM | B (500 ≥ B > 200)
CN1C(=O)CCc2cc(-c3cncc(N4CCN(CC(=O)NC5CC(F)(F)C5)CC4)n3)ccc21 | 3 to 10 nM | –
CN1C(=O)CCc2cc(-c3cncc(N4CCN(CC(=O)N(C)C5CC5)CC4)c3)ccc21 | < 3 nM | –
CN1C(=O)CCc2cc(-c3cncc(N4CCN(CC(=O)N5CCOCC5)CC4)c3)ccc21 | 3 to 10 nM | –
CN1C(=O)CCc2cc(-c3cncc(N4CCN(CC(=O)NC5CC(C)(C)C5)CC4)c3)ccc21 | < 3 nM | A (A > 500)
CN1C(=O)CCc2cc(-c3cncc(N4CCN(CC(=O)NC5CCn6ccnc6C5)CC4)c3)ccc21 (stereo not drawn) | 10 to 20 nM | A (A > 500)
CN1C(=O)CCc2cc(-c3cncc(N4CCN(CC(=O)N(C)C5CC(F)(F)C5)CC4)c3)ccc21 | 3 to 10 nM | –
CN1C(=O)CCc2cc(-c3cncc(N4CCN(CC(=O)N[C@@H]5C[C@H]5F)CC4)c3)ccc21 | 3 to 10 nM | –
CN1C(=O)CCc2cc(-c3cncc(N4CCN(CC(=O)NC5CCC5)CC4)c3)ccc21 | < 3 nM | –
CN1C(=O)CCc2cc(-c3cncc(N4CCN(CC(=O)NC5CC5(F)F)CC4)c3)ccc21 (stereo not drawn) | < 3 nM | C (200 ≥ C > 100)
CN1C(=O)CCc2cc(-c3cncc(N4CCN(CC(=O)NC5(C)CC5)CC4)c3)ccc21 | 3 to 10 nM | B (500 ≥ B > 200)
CN1C(=O)CCc2cc(-c3cncc(N4CCN(C(C)(C)C(=O)Nc5cccnc5)CC4)c3)ccc21 | 3 to 10 nM | –
COC1CC2(C1)CN(C(=O)CN1CCN(c3cncc(-c4ccc5c(c4)CCC(=O)N5C)c3)CC1)C2 | 3 to 10 nM | C (200 ≥ C > 100)
CN1C(=O)CCc2cc(-c3cncc(N4CCN(CC(=O)N[C@H]5C[C@H](F)C5)CC4)c3)ccc21 | 3 to 10 nM | –
CN1C(=O)CCc2cc(-c3cncc(N4CCN(CC(=O)NC5CC6(CC6)C5)CC4)c3)ccc21 | < 3 nM | B (500 ≥ B > 200)
CN1C(=O)CCc2cc(-c3cncc(N4CCN(CC(=O)NC5CC(F)C5)CC4)c3)ccc21 (stereo not drawn) | < 3 nM | B (500 ≥ B > 200)
COC12CC(NC(=O)CN3CCN(c4cncc(-c5ccc6c(c5)CCC(=O)N6C)c4)CC3)(C1)C2 | 3 to 10 nM | C (200 ≥ C > 100)
CN1C(=O)CCc2cc(-c3cncc(N4CCN(CC(=O)NC56CC(C(F)(F)F)(C5)C6)CC4)n3)ccc21 | < 3 nM | A (A > 500)
COCC1CC(NC(=O)CN2CCN(c3cncc(-c4ccc5c(c4)CCC(=O)N5C)c3)CC2)C1 (stereo not drawn) | 3 to 10 nM | B (500 ≥ B > 200)
CN1C(=O)CCc2cc(-c3cncc(N4CCN(CC(=O)N[C@H]5C[C@@H](F)C5)CC4)c3)ccc21 | 3 to 10 nM | –

SMILES | IC50 [1] | Ratio of CYP11B1 IC50 to CYP11B2 IC50 [2]
CN1C(=O)CCc2cc(-c3cncc(N4CCN(CC(=O)NC5CC6(CCC6)C5)CC4)c3)ccc21 | < 3 nM | A (A > 500)
CC(C)NC(=O)CN1CCN(c2cncc(-c3ccc4c(c3)sc(=O)n4C)c2)CC1 | < 3 nM | –
CC(C)N(C)C(=O)CN1CCN(c2cncc(-c3ccc4c(c3)CCC(=O)N4C)n2)CC1 | < 3 nM | B (500 ≥ B > 200)
COC1CC(NC(=O)C(C)(C)N2CCN(c3cncc(-c4ccc5c(c4)CCC(=O)N5C)c3)CC2)C1 (stereo not drawn) | 10 to 20 nM | C (200 ≥ C > 100)
CN1C(=O)CCc2cc(-c3cncc(N4CCN(CC(=O)NC5(C)CC(F)(F)C5)CC4)c3)ccc21 | 3 to 10 nM | B (500 ≥ B > 200)
CN1C(=O)CCc2cc(-c3cncc(N4CCN(CC(=O)NC5CC5C(F)(F)F)CC4)c3)ccc21 (stereo not drawn) | < 3 nM | B (500 ≥ B > 200)
CN1C(=O)CCc2cc(-c3cncc(N4CCN(CC(=O)NC56CC7CC(CC(C7)C5)C6)CC4)c3)ccc21 | 10 to 20 nM | B (500 ≥ B > 200)
CN1C(=O)CCc2cc(-c3cncc(N4CCN(CC(=O)N5CCC6(CC5)CC6)CC4)c3)ccc21 | 3 to 10 nM | –
CN1C(=O)CCc2cc(-c3cncc(N4CCN(CC(=O)N(C)C5CC5)CC4)n3)ccc21 | < 3 nM | –
CN1C(=O)CCc2cc(-c3cncc(N4CCN(CC(=O)NC56CC(F)(C5)C6)CC4)c3)ccc21 | 3 to 10 nM | C (200 ≥ C > 100)
CN1C(=O)CCc2cc(-c3cncc(N4CCN(CC(=O)N5CC(F)(F)C5)CC4)c3)ccc21 | < 3 nM | –
CN1C(=O)CCc2cc(-c3cncc(N4CCN(CC(=O)NC56CC(C)(C5)C6)CC4)c3)ccc21 | < 3 nM | B (500 ≥ B > 200)
CN1C(=O)CCc2cc(-c3cncc(N4CCN(CC(=O)NC5CCC(F)(F)CC5)CC4)n3)ccc21 | 3 to 10 nM | –
CC(=O)N[C@H]1CC[C@H](NC(=O)CN2CCN(c3cncc(-c4ccc5c(c4)CCC(=O)N5C)c3)CC2)CC1 | 10 to 20 nM | B (500 ≥ B > 200)
CC(C)NC(=O)CN1CCN(c2cncc(-c3ccc4c(c3)CCO4)c2)CC1 | – | D (D ≤ 100)
CN1C(=O)CCc2cc(-c3cncc(N4CCN(CC(=O)N5CCC(F)(F)CC5)CC4)c3)ccc21 | 3 to 10 nM | B (500 ≥ B > 200)
CN1C(=O)CCc2cc(-c3cncc(N4CCN(CC(=O)NC5CCC(F)(F)CC5)CC4)c3)ccc21 | 3 to 10 nM | B (500 ≥ B > 200)
CN1C(=O)CCc2cc(-c3cncc(N4CCN(CC(=O)NC5COC5)CC4)c3)ccc21 | 10 to 20 nM | C (200 ≥ C > 100)
CN1C(=O)CCc2cc(-c3cncc(N4CCN(CC(=O)NC5CC(C(F)(F)F)C5)CC4)c3)ccc21 (stereo not drawn) | < 3 nM | B (500 ≥ B > 200)
CN1C(=O)CCc2cc(-c3cncc(N4CCN(CC(=O)NC5CC5)CC4)c3)ccc21 | < 3 nM | B (500 ≥ B > 200)
CN1C(=O)CCc2cc(-c3cncc(N4CCN(CC(=O)N5CC6(CCOCC6)C5)CC4)c3)ccc21 | 10 to 20 nM | –
CC(C)NC(=O)CN1CCN(c2cncc(-c3cc(F)c4c(c3)OCC(=O)N4C)c2)CC1 | 3 to 10 nM | –
CN1C(=O)CCc2cc(-c3cncc(N4CCN(CC(=O)NC(C)(C)C)CC4)c3)ccc21 | 3 to 10 nM | –
COc1ccc2cc(-c3cncc(N4CCN(CC(=O)NC(C)C)CC4)c3)ccc2n1 | < 3 nM | –

Structures were worked out from names or drawings and are uncertain.
